Data as given in the supplement of paper PMC10849652.
The other results are listed elsewhere or left out.

Sequences of proteins named here, by UniProt entry; tags and fusion partners are left off. A change or cut given only in a name is not applied to a line headed by its entry.
UniProt Q8IWF2: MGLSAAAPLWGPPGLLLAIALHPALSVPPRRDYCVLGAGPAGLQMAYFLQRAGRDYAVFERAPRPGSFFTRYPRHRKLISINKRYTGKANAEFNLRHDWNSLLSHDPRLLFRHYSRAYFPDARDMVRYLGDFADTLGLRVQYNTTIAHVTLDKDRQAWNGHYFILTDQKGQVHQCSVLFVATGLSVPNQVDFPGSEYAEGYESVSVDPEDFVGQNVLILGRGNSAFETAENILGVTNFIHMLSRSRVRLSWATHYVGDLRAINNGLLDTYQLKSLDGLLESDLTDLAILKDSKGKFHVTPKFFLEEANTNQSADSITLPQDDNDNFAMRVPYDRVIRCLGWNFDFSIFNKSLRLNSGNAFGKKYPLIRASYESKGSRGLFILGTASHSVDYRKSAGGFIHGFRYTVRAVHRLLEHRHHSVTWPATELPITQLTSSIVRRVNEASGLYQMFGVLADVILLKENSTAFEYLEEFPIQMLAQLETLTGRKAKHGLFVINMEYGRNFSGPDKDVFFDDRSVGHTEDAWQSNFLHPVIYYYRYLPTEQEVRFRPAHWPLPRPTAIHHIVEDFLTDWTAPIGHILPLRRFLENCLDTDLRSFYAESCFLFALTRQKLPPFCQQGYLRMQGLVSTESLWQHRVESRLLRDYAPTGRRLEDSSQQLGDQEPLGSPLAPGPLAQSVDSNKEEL
UniProt P15976: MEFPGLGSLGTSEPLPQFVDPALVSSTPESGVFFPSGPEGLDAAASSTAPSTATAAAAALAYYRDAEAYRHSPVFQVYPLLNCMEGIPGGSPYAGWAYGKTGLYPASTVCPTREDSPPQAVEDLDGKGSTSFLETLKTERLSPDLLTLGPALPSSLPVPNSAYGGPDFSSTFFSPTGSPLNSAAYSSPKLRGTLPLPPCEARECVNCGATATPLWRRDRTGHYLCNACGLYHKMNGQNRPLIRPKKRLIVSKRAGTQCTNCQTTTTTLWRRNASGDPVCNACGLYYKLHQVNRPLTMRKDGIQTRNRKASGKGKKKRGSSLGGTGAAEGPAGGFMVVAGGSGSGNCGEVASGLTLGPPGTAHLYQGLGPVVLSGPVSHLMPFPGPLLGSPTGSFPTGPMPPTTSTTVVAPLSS
UniProt Q9UET6: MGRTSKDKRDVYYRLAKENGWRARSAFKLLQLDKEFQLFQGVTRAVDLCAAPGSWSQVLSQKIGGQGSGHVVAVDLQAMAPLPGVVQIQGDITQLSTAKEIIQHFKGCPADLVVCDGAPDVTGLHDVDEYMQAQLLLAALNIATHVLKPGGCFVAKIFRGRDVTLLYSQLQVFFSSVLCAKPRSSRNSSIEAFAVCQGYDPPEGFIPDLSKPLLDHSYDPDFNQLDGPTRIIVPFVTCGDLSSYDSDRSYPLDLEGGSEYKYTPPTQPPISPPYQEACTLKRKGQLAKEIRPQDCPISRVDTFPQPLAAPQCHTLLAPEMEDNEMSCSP
UniProt P23434: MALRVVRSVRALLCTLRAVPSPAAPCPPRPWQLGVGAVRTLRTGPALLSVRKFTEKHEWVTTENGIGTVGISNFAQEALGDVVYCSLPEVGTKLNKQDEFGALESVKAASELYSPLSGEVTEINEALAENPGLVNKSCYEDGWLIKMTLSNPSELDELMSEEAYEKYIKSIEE
UniProt P51116, whole entry, looked up: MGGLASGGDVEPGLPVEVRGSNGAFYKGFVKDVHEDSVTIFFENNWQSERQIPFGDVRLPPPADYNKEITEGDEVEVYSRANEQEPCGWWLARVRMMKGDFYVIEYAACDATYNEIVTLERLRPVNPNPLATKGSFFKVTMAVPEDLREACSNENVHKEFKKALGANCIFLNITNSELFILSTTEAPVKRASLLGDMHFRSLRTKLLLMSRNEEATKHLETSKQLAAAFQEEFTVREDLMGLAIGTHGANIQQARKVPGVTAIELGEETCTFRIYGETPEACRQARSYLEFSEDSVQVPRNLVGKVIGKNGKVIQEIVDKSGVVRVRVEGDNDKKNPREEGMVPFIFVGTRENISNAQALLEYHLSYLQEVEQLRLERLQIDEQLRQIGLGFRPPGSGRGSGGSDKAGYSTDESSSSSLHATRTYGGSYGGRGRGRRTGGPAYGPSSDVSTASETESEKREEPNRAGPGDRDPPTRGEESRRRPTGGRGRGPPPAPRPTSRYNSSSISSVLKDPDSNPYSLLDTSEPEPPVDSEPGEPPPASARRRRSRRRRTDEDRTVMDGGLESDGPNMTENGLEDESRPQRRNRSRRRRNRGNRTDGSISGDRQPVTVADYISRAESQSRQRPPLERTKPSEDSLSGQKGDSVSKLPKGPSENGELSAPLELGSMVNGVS
UniProt Q9H334: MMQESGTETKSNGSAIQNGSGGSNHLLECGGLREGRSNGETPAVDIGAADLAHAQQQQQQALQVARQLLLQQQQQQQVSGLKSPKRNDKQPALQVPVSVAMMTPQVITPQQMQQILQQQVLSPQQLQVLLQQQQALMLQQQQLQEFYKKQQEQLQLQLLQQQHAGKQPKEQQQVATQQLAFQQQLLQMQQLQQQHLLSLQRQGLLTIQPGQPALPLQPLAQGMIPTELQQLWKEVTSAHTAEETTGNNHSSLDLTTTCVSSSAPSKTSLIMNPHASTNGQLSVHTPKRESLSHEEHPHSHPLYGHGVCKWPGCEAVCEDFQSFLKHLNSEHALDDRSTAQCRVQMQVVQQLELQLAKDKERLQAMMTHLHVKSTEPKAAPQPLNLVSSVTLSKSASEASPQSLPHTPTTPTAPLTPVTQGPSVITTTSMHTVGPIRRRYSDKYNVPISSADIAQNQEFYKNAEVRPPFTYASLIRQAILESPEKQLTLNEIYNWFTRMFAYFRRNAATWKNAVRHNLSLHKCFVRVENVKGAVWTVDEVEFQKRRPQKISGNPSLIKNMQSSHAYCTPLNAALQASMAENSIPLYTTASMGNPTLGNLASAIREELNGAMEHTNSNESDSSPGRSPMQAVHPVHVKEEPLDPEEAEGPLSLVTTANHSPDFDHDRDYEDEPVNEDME
UniProt Q7Z7M9: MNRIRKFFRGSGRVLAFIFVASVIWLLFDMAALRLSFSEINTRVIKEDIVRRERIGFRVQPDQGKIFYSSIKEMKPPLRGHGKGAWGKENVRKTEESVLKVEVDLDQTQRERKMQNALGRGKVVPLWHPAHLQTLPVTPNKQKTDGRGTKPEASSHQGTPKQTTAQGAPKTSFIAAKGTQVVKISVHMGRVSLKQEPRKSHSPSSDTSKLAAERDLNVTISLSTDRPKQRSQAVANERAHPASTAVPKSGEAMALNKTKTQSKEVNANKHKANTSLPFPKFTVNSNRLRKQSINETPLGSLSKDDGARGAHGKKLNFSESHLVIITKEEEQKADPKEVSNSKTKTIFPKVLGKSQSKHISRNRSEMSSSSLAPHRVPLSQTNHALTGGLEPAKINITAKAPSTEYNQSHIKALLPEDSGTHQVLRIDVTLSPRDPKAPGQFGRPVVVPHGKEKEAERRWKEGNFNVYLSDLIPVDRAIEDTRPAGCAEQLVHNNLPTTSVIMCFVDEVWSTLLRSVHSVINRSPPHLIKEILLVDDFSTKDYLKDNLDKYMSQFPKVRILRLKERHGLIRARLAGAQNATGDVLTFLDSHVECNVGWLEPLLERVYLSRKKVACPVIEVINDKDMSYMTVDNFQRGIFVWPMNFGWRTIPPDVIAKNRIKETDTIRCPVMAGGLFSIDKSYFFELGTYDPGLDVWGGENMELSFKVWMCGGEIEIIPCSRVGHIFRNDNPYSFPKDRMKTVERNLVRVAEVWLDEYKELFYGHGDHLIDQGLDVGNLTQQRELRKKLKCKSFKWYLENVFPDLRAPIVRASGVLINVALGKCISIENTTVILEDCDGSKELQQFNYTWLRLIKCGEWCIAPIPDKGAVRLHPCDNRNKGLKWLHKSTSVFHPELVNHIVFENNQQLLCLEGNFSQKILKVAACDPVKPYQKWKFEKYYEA
UniProt Q6NT46: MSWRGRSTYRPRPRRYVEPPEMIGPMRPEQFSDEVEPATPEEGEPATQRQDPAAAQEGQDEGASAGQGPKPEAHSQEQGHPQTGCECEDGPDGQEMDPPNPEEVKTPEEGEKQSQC
UniProt Q8WXD5: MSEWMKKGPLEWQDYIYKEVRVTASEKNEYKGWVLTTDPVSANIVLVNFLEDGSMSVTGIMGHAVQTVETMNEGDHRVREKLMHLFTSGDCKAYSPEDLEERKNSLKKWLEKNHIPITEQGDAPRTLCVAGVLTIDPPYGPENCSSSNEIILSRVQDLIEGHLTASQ
UniProt P51570: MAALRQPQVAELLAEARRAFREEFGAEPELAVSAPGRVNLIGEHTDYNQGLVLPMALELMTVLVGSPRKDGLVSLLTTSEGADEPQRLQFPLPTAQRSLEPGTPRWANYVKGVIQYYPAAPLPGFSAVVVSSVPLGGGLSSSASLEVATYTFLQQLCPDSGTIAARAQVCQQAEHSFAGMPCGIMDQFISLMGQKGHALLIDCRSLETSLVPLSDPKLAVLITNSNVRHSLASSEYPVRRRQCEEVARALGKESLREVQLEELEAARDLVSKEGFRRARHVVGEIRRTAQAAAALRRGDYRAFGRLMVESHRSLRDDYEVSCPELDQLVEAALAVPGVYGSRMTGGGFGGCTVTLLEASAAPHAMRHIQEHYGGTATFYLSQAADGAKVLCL
UniProt P22102: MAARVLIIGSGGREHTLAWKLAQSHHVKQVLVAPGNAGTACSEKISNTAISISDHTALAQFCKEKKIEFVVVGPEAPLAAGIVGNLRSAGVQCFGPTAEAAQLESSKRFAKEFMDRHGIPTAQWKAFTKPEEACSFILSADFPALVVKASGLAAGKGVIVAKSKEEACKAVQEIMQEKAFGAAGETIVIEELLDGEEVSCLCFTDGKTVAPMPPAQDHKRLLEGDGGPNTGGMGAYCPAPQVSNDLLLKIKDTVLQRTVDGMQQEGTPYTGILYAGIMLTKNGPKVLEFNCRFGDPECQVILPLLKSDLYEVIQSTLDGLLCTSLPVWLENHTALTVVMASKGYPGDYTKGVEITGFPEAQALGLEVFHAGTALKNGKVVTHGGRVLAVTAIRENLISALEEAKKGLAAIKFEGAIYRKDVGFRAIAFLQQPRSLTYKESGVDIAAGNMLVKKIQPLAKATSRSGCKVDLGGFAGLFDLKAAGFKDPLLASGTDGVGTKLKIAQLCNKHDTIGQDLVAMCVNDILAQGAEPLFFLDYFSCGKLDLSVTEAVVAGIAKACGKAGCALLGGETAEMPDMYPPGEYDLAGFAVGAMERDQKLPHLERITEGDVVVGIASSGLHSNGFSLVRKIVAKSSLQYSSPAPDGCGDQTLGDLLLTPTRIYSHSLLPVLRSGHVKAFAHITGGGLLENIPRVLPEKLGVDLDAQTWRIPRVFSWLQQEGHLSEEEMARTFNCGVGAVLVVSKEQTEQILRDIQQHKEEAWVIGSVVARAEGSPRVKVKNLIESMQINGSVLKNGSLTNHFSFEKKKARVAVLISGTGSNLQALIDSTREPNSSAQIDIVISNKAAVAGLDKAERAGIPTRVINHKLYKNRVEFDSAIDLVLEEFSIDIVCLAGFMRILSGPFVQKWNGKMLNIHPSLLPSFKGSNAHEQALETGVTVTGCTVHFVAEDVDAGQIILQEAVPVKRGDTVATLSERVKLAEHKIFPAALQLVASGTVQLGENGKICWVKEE
UniProt P09958, whole entry, looked up: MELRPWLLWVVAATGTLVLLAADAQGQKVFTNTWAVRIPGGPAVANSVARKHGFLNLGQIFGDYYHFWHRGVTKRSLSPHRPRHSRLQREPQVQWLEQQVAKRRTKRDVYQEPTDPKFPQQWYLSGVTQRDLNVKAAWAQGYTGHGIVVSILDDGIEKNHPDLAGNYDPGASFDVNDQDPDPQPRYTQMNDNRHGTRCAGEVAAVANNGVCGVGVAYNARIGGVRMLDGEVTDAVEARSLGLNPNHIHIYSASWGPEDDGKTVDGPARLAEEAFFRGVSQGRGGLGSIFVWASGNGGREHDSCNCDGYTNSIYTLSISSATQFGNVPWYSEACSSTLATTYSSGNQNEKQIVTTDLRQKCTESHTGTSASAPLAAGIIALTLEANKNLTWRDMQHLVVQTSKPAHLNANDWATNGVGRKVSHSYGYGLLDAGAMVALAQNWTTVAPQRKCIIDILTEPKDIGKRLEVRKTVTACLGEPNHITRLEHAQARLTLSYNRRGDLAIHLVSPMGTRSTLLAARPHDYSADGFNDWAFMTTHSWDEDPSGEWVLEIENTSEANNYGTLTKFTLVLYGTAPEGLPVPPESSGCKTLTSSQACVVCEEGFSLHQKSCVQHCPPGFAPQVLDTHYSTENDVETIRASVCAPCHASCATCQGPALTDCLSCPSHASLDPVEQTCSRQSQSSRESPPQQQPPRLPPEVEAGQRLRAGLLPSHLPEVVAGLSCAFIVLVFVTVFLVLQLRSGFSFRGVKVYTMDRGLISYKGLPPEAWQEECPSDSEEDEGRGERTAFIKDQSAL
UniProt A2VDF0: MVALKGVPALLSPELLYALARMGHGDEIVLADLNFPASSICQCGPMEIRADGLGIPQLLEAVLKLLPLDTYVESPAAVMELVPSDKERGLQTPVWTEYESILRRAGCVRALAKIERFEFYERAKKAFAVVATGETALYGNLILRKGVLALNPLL

Legend:
Experiment in all cases: log2 fold change, soluble protein after heating vs DMSO (PISA); higher = thermal stabilisation; K562 lysate, 10 uM; active = over 0.2 and 3.5 SD of the protein, either way, in both replicates (recomputed)
nilotinib = compound: Cc1cn(-c2cc(NC(=O)c3ccc(C)c(Nc4nccc(-c5cccnc5)n4)c3)cc(C(F)(F)F)c2)cn1 [nilotinib]
In short: (§1)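 K562 pellets were dounce-homogenised in PBS pH 7.4 with 1 mM MgCl2, and the crude extract at 1 mg/mL protein was treated with 10 μM compound for 30 min. Aliquots were heated for 3 min across 48°C-58°C, pooled, and brought to 0.5% NP-40 at 4°C; soluble protein was the supernatant after 21,000xg for 90 min. Soluble protein was quantified by TMTpro 16plex LC-MS/MS with channel sums equalised, and reported as log2 fold change in thermal stability against DMSO controls, with values from duplicates.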

[1] = compound: Cc1nc(Nc2n[nH]c3c2CN(C(=O)N[C@H](CN(C)C)c2ccccc2)C3(C)C)c2sccc2n1
In short: as §1

dasatinib = compound: Cc1nc(Nc2ncc(C(=O)Nc3c(C)cccc3Cl)s2)cc(N2CCN(CCO)CC2)n1 [dasatinib]
In short: as §1

[2] = compound: Cc1ncc(-c2ccnc(Nc3ccc(S(C)(=O)=O)cc3)n2)n1C(C)C
In short: as §1

[3] = compound: Cn1cc(-c2ccc3c(c2)CCN3C(=O)Cc2cccc(C(F)(F)F)c2)c2c(N)ncnc21
In short: as §1

tipifarnib = compound: Cn1cncc1[C@@](N)(c1ccc(Cl)cc1)c1ccc2c(c1)c(-c1cccc(Cl)c1)cc(=O)n2C [tipifarnib]
In short: as §1

[4] = compound: NC1(c2ccc(-c3nc4ccn5c(=O)[nH]nc5c4cc3-c3ccccc3)cc2)CCC1
In short: as §1

quisinostat = compound: Cn1cc(CNCC2CCN(c3ncc(C(=O)NO)cn3)CC2)c2ccccc21 [quisinostat]
In short: as §1

[5] = compound: NC(=O)Nc1cc(-c2cccc(F)c2)sc1C(=O)N[C@H]1CCCNC1
In short: as §1

[6] = compound: NC(=O)c1cnc(N[C@@H]2CCCC[C@@H]2N)nc1Nc1cccc(-n2nccn2)c1
In short: as §1

Measured: log2 fold change

FPGS (UniProt Q05932)
inactive: nilotinib 0.024 | [1] 0.074 | dasatinib 0.041 | [2] 0.016 | [3] -0.025 | tipifarnib -0.045

FOXP4 (UniProt Q8IVH2)
inactive: nilotinib -0.004 | [1] -0.003 | dasatinib -0.011 | [2] -0.032 | [3] 0.304 | tipifarnib -0.12 | [4] -0.029

GALM (UniProt Q96C23)
inactive: nilotinib 0.034 | [1] -0.029 | dasatinib -0.007 | [2] -0.017 | [3] -0.025 | quisinostat -0.012 | tipifarnib -0.009 | [5] 0.005 | [6] 0.011 | [4] -0.004

GAGE12F (UniProt P0CL80)
inactive: nilotinib 0.03 | [1] 0.044 | dasatinib 0 | [2] 0.024 | [3] 0.004 | quisinostat -0.079 | tipifarnib -0.007 | [5] -0.056 | [6] 0.025 | [4] -0.01

FOXRED2 (UniProt Q8IWF2)
inactive: nilotinib -0.036 | [1] 0.101 | dasatinib 0.103 | [2] -0.136 | [3] -0.028 | quisinostat -0.022 | tipifarnib 0.044 | [5] 0.039 | [4] -0.036

GATA1 (UniProt P15976)
inactive: nilotinib -0.087 | [1] -0.098 | dasatinib -0.075 | [2] 0.049 | [3] -0.003 | quisinostat -0.041 | tipifarnib -0.07 | [5] 0.111 | [6] -0.037 | [4] -0.013

GAN (UniProt Q9H2C0)
inactive: nilotinib -0.006 | [1] -0.02 | dasatinib -0.013 | [2] -0.023 | [3] -0.021 | quisinostat -0.06 | tipifarnib -0.029 | [5] 0 | [6] 0.007 | [4] -0.039

FYCO1 isoform 4 (UniProt Q9BQS8)
inactive: nilotinib -0.02 | [1] -0.022 | dasatinib 0.011 | [2] 0.016 | [3] 0.031 | quisinostat -0.014 | tipifarnib -0.012 | [5] 0.019 | [6] 0.015 | [4] -0.008

FTSJ1 (UniProt Q9UET6)
inactive: nilotinib -0.013 | [1] -0.039 | dasatinib -0.016 | [2] -0.007 | [3] -0.007 | quisinostat -0.032 | tipifarnib -0.054 | [5] 0.035 | [6] -0.001 | [4] 0.029

GART (UniProt C9JZG2)
inactive: nilotinib -0.085 | [1] -0.033 | [2] 0.042 | quisinostat -0.373 | tipifarnib -0.101 | [5] -0.02 | [6] 0.139

GCSH (UniProt P23434)
inactive: nilotinib 0.068 | [1] 0.034 | dasatinib 0.123 | [2] -0.029 | [3] 0.024 | quisinostat -0.024 | tipifarnib -0.014 | [5] 0.014 | [6] -0.027 | [4] -0.071

GAMT (UniProt Q14353)
inactive: nilotinib -0.017 | [1] 0.022 | dasatinib 0.03 | [2] 0.129 | [3] -0.025 | quisinostat -0.043 | tipifarnib -0.137 | [5] 0.024 | [6] -0.016 | [4] -0.002

FPGT (UniProt O14772)
inactive: nilotinib -0.006 | [1] -0.004 | dasatinib -0.057 | [2] 0.029 | [3] -0.014 | quisinostat -0.105 | tipifarnib -0.036 | [5] 0.046 | [6] 0.035 | [4] -0.03

GALNT12 (UniProt Q8IXK2)
inactive: nilotinib 0.046 | [1] -0.05 | dasatinib -0.037 | [2] 0.007 | [3] 0.182 | quisinostat 0.013 | tipifarnib -0.063 | [5] 0.01 | [6] -0.029 | [4] 0.013

GDI2 (UniProt Q5SX86)
inactive: nilotinib -0.127 | [1] -0.005 | dasatinib -0.112 | [2] 0.207 | [3] 0.043 | tipifarnib 0.053 | [6] -0.112 | [4] 0.09

FSCN1 (UniProt Q16658)
inactive: nilotinib 0.023 | [1] -0.003 | dasatinib 0.004 | [2] 0.004 | [3] 0.004 | quisinostat 0.067 | tipifarnib 0.022 | [5] -0.022 | [6] -0.005 | [4] 0.015

GEMIN5 (UniProt Q8TEQ6)
inactive: nilotinib -0.003 | [1] -0.001 | dasatinib -0.046 | [2] 0.001 | [3] 0.037 | quisinostat -0.102 | tipifarnib 0.015 | [5] 0.031 | [6] 0.003 | [4] -0.027

GAPDH (UniProt P04406)
inactive: nilotinib 0.045 | [1] -0.026 | dasatinib -0.001 | [2] -0.023 | [3] 0 | quisinostat 0.114 | tipifarnib 0.042 | [5] 0 | [6] -0.019 | [4] 0.018

FXR2 (UniProt P51116)
inactive: nilotinib -0.066 | [1] 0.032 | dasatinib -0.027 | [2] 0.003 | [3] 0.074 | quisinostat 0.025 | tipifarnib 0.015 | [5] -0.034 | [6] -0.012 | [4] -0.003

Quoted from the entries so far (2 entries):
FOXRED2 (UniProt Q8IWF2)
inactive: nilotinib -0.036 | [1] 0.101 | dasatinib 0.103 | [2] -0.136 | [3] -0.028 | quisinostat -0.022 | tipifarnib 0.044 | [5] 0.039 | [4] -0.036

GATA1 (UniProt P15976)
inactive: nilotinib -0.087 | [1] -0.098 | dasatinib -0.075 | [2] 0.049 | [3] -0.003 | quisinostat -0.041 | tipifarnib -0.07 | [5] 0.111 | [6] -0.037 | [4] -0.013

The listing continues.

FOXP1 (UniProt Q9H334)
inactive: nilotinib 0.033 | [1] 0.082 | dasatinib -0.047 | [2] -0.179 | [3] 0.092 | quisinostat -0.056 | tipifarnib 0.015 | [5] 0.005 | [4] 0.034

FRMD8 (UniProt Q9BZ67)
inactive: nilotinib -0.009 | [1] -0.154 | dasatinib -0.065 | [2] 0.095 | [3] -0.086 | quisinostat -0.501 | tipifarnib 0.048 | [5] 0.05 | [4] -0.043

GALNT5 (UniProt Q7Z7M9)
inactive: nilotinib -0.022 | [1] -0.051 | dasatinib -0.017 | [2] 0.01 | [3] -0.01 | quisinostat 0.018 | tipifarnib -0.037 | [5] -0.014 | [6] 0.036 | [4] 0.013

GAGE2A (UniProt Q6NT46)
inactive: nilotinib 0.006 | [1] 0.012 | dasatinib 0.056 | [2] -0.018 | [3] -0.091 | quisinostat -0.05 | tipifarnib 0.102 | [5] 0.001 | [6] -0.039 | [4] -0.023

GEMIN6 (UniProt Q8WXD5)
inactive: nilotinib 0.007 | [1] -0.029 | dasatinib 0.031 | [2] -0.002 | [3] -0.001 | quisinostat 0.047 | tipifarnib 0.032 | [5] -0.028 | [6] 0.005 | [4] -0.007

GALK1 isoform 2 (UniProt P51570)
inactive: nilotinib 0.01 | [1] -0.018 | dasatinib -0.024 | [2] -0.014 | [3] 0.03 | quisinostat -0.051 | tipifarnib 0.002 | [5] 0.04 | [6] -0.033 | [4] -0.006

GART (UniProt P22102)
inactive: nilotinib -0.006 | [1] -0.024 | dasatinib -0.022 | [2] -0.011 | [3] 0.01 | quisinostat 0.025 | tipifarnib 0.011 | [5] 0.015 | [6] 0.007 | [4] 0.006

FURIN (UniProt P09958)
inactive: nilotinib -0.018 | [1] -0.122 | dasatinib 0.131 | [2] -0.007 | [3] -0.04 | quisinostat -0.009 | tipifarnib 0.03 | [5] 0.027 | [4] -0.032

FTSJ3 (UniProt Q8IY81)
inactive: nilotinib 0.001 | [1] -0.025 | dasatinib 0.021 | [2] 0.016 | [3] -0.001 | quisinostat 0.066 | tipifarnib -0.046 | [5] 0.047 | [6] 0.033 | [4] -0.015

FZD1 (UniProt Q9UP38)
inactive: nilotinib -0.002 | [1] -0.027 | [2] 0.067 | quisinostat -0.064 | tipifarnib -0.123 | [5] -0.039

GGA1 isoform 6 (UniProt Q9UJY5)
inactive: nilotinib -0.001 | [1] -0.024 | dasatinib -0.018 | [2] 0.015 | [3] 0.013 | quisinostat -0.071 | tipifarnib 0.023 | [5] 0.005 | [6] 0.026 | [4] -0.023

FUOM (UniProt A2VDF0)
inactive: nilotinib -0.002 | [1] -0.129 | dasatinib -0.031 | [2] 0.011 | [3] -0.061 | tipifarnib 0.306 | [6] -0.071 | [4] 0.097

GALNT7 (UniProt Q86SF2)
inactive: nilotinib 0.032 | [1] -0.02 | dasatinib 0.011 | [2] 0.004 | [3] 0.02 | quisinostat -0.021 | tipifarnib -0.016 | [5] -0.04 | [6] -0.008 | [4] 0.005
